Screen size: about 310,000 compounds; about 17,000 (5.5%) were called active. Inconclusive means that the source gave no clear call. Such entries were picked first, then a sample of the others. Calls come from the whole dose curve; as a rule, active = well fitted inhibition curve with a large enough effect; inconclusive = small, poorly fitted or top-dose-only effect, or effect the other way; inactive = no such curve, though single readings can be large or run the other way. A potency beside an inconclusive call is a rough fit, not a confirmed value.
molecular target: Nuclear receptor ROR-gamma (Mus musculus) (UniProt P51450); test: qHTS for inhibitors of ROR gamma transcriptional activity; conditions: Drosophila S2 Gal4-RORgamma UAS-luciferase reporter, 20 h; activity change, negative = inhibition: at 53.6 µM (top of the series); note: nearly all actives have a fitted effect of over 60% in size
Summary of the method: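 Drosophila Schneider cells stably carrying a metallothionein-driven Gal4 DBD–ROR gamma fusion and a UAS-Photinus luciferase reporter were exposed to compound for 1 hr, then induced with copper sulfate (700 uM final) for 20 hr at ambient temperature before luminescence reading.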
% is set by controls: 0 for no effect and ±100 for the full control effect; potency is the fitted concentration of half-maximal effect.

The chains behind the UniProt entries cited, without tags or fusion partners. Where a name states a change or a piece, a line headed by the entry shows the natural chain unless it says otherwise.
UniProt P51450: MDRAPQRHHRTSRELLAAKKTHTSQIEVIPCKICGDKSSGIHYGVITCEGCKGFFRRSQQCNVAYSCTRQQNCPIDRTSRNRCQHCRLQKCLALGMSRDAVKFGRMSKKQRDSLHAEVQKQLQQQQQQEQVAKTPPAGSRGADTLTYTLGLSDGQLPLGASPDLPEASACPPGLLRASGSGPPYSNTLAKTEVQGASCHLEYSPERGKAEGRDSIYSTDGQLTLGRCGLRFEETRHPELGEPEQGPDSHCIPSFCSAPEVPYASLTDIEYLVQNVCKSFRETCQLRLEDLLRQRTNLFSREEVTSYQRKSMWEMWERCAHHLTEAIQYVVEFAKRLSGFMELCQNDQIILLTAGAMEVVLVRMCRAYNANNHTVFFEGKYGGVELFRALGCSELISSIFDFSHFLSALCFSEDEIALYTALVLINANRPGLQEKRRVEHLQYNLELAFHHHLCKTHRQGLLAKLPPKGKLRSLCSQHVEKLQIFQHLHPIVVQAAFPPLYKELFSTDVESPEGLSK

SMILES	activity change, negative = inhibition	Potency
CNc1nc(N)c([N+](=O)[O-])c(Nc2ccccc2OC)n1	inactive: -22%	–
CC(C)C(=O)Nc1cccc(-c2nc3ccccc3c(=O)o2)c1	–	inconclusive: 2.82 µM [inhibitor, single point]
O=C(O)c1ccc(N/N=C/c2cccc3cccnc23)cc1	–	inconclusive: 25.1 µM [inhibitor, single point]
COc1ccccc1C(=O)Nc1cccc(NC(=O)c2ccccc2OC)n1	inactive: 26.4% [at 1.91 µM]	–
O=C1/C(=C/c2cccc(F)c2)Oc2cc(O)ccc21	–	inconclusive: 35.5 µM [activator, single point]
CC(C)(C)C(=O)Nc1ccnc(-c2cccnc2)n1	inactive: -0.0891%	–
Cc1nc(-c2ccccc2)sc1C(=O)CSc1ccc(F)cc1	–	inconclusive: 8.91 µM [activator, partial curve, poor fit]
Cc1ccc(C)c(-n2cc(CNCCc3cnccn3)c(-c3ccccc3)n2)c1	inactive: -9.96%	–
CCOC(=O)c1c(NC(=O)C(=O)N/N=C/c2ccccc2OC)sc2c1CCCCC2	inactive: -8.09%	–
Nc1nc(NCc2ccco2)nc(N2CCCCC2)c1[N+](=O)[O-]	–	inconclusive: 15.8 µM [activator, single point]
CCOc1ccc(CCNC(=O)C2CCCN(c3ncnc4c3nc3n4CCCCC3)C2)cc1 (stereo unspecified)	inactive: -0.181%	–
Cc1ccc([N+](=O)[O-])cc1NC(=O)Nc1cccc(F)c1	–	inconclusive: 2.82 µM [activator, full curve, poor fit]
CC1=C(C)CC2C(=O)N(c3cccc4ccccc34)C(=O)C2C1 (stereo unspecified)	–	inconclusive: 3.55 µM [activator, single point]
CC1CCCN(S(=O)(=O)c2ccc(C(=O)Nc3nnc(C4=COCCO4)o3)cc2)C1 (stereo unspecified)	–	active: 0.794 µM
Cc1ccc(OCCSc2ncccn2)c(C)c1	–	active: 10 µM
NC(=O)CC(NC(=O)c1ccccc1)c1ccc(N2CCC(Br)CC2)c([N+](=O)[O-])c1 (stereo unspecified)	–	inconclusive: 3.16 µM [activator, full curve]
CCC(C)[C@H](NC(=O)N1CCn2c1nc1ccccc12)C(=O)NCCc1ccccc1 (stereo partly specified)	–	inconclusive: 15.8 µM [activator, partial curve]
O=Nc1c(-c2cccc([N+](=O)[O-])c2)nc2ncccn12	–	inconclusive: 35.5 µM [inhibitor, single point]
COc1ccccc1/C=C/C=N\N1CCN(Cc2ccccc2Cl)CC1	–	inconclusive: 14.1 µM [activator, single point]
COc1ccccc1/C=C/C=N/n1c(-c2cc(-c3ccccc3)n[nH]2)n[nH]c1=S	–	inconclusive: 1.26 µM [inhibitor, full curve, poor fit]
CC1CCN(c2ccccc2NC(=S)NC(=O)c2cccs2)CC1	–	active: 2.24 µM
CC(C)(C)NC(=S)N/N=C/c1cccnc1	–	active: 5.62 µM
O=C(CCCn1c(=S)[nH]c2cc3c(cc2c1=O)OCO3)N1CCN(c2ncccn2)CC1	–	active: 15.8 µM

Molecules listed so far that contain a thiophene ring, fused or not (2):
SMILES	activity change, negative = inhibition	Potency
CCOC(=O)c1c(NC(=O)C(=O)N/N=C/c2ccccc2OC)sc2c1CCCCC2	inactive: -8.09%	–
CC1CCN(c2ccccc2NC(=S)NC(=O)c2cccs2)CC1	–	active: 2.24 µM

Following part:

SMILES	activity change, negative = inhibition	Potency
O=C(c1ccc(S(=O)(=O)NCC2CCCO2)cc1)N1CCN(c2ccccc2)CC1 (stereo unspecified)	–	inconclusive: 15.8 µM [activator, single point]
Cc1cc(C)cc(-n2c(C)cc(/C=N/NC(=O)c3ccncc3)c2C)c1	–	active: 7.08 µM
COc1ccc(C2C3C=CCC(c4ccccc4)C3C(=O)N2Cc2ccccc2)cc1Cl (stereo unspecified)	–	inconclusive: 35.5 µM [inhibitor, single point]
CCc1nccn1S(=O)(=O)c1cc(OC)ccc1OC	–	inconclusive: 7.94 µM [inhibitor, partial curve]
Cc1nn(C)c(C)c1S(=O)(=O)N1CCCC(C(=O)N2CCN(c3ccc(Cl)cc3)CC2)C1 (stereo unspecified)	inactive: -1.7%	–
Cc1ccc(Sc2ncccc2C(=O)NC2CCCCCC2)cc1C	inactive: -10.6%	–
O=C(O)c1ccc(NC(=O)c2cn(-c3ccccc3)nc2-c2cccc(Cl)c2)cc1	–	inconclusive: 12.6 µM [activator, partial curve]
CC1Sc2ccc(S(=O)(=O)N3CCC(C(=O)N(C)Cc4ccco4)CC3)cc2NC1=O (stereo unspecified)	–	inconclusive: 12.6 µM [activator, partial curve]
Nc1ccc(C(=O)N2CCCC2)cc1	inactive: -37.5%	–
O=C(Nc1ccc(N2CCCCC2)cc1)c1ccccc1	–	active: 3.55 µM
Cc1ccc(OCCn2cc(C(=S)N3CCCC3)c3ccccc32)cc1C	–	active: 6.31 µM
O=C(Nc1cccc(-c2cc3ccccc3oc2=O)c1)c1ccc(Br)o1	–	inconclusive: 0.0891 µM [activator, full curve, poor fit]
COC(=O)c1ccc(SCc2cnc(Cl)s2)cc1	–	inconclusive: 35.5 µM [activator, single point]
CCOc1ccc(CCNC(=O)c2nn(C)c3c2CS(=O)(=O)c2ccccc2-3)cc1	inactive: 1.47%	–
COc1ccc(NCC(=O)N/N=C/c2ccc3c(c2)OCCO3)cc1	–	active: 0.126 µM
CS(=O)(=O)N1CCN(c2ccc(NC(=O)c3ccccc3)cc2)CC1	–	inconclusive: 5.62 µM [activator, partial curve, poor fit]
CCOC(=O)c1sc2nc(-c3ccco3)c3c(c2c1N)CC(C)(C)OC3	–	inconclusive: 35.5 µM [inhibitor, single point]
CN(C(=O)/C(N=Nc1cccc(C(F)(F)F)c1)=C(\O)C(F)(F)F)c1ccccc1	–	inconclusive: 15.8 µM [activator, partial curve]
CC(C)[C@H](CO)Nc1nc(Nc2cc(N)cc(Cl)c2)c2ncn(C(C)C)c2n1	–	inconclusive: 8.91 µM [activator, partial curve]
Cc1ccsc1/C=N/NC(=S)NCCc1ccccc1	–	active: 1 µM
ClC(Cl)(Cl)c1nc2ccccc2n2nncc12	–	inconclusive: 11.2 µM [inhibitor, partial curve]
Cc1ccc(C(=O)NNC(=S)NC(=O)c2ccc(Cl)cc2)cc1	–	inconclusive: 7.08 µM [inhibitor, partial curve]
COc1ccc2c(c1OC)C(=O)N(c1cccc(/C=C/C(=O)O)c1)C2	–	inconclusive: 8.91 µM [inhibitor, partial curve, poor fit]
